Assay results reported in patent US20030022317.
Construct, isoform or probe ends are uncertain for at least one entry.

Tested on: N.BstNBI nicking endonuclease
Assay: enzyme reaction in vitro
Details: purified native protein
[1] = site within plasmid pECV1, three fragments released after nicking and heating to 65 C

Sequence | activity on this sequence [1] | further results
GAGTCAGCTCAATGTTGCCAGTCAGGACTC (double strand) [M1 12-nt cohesive-end cassette (paired N.BstNBI sites)] | active | 
GAGTCCGATATTTACGGGCCACGTAGACTC (double strand) [M2 12-nt cohesive-end cassette (paired N.BstNBI sites)] | active | 
GAGTCCGATTGACCTAAGCGGATACTCTGACGACTC (double strand) [N2 18-nt cohesive-end cassette (paired N.BstNBI sites)] |  | activity on this sequence (site within plasmids pAZY2 and pECH1, fragments released after nicking and heating): active
GAGTCTCAGACTATCTGGAGCGACTGACTC (double strand) [M3 12-nt cohesive-end cassette (paired N.BstNBI sites)] | active | 
GAGTCTCAGCCTGTTAGCGATGGTACATGACGACTC (double strand) [N3 18-nt cohesive-end cassette (paired N.BstNBI sites)] |  | activity on this sequence (site within plasmids pECF11 and pECH1, fragments released after nicking and heating to 65 C): active
GAGTCTGACATCGAGCGCCTAGCATTAGTCAGACTC (double strand) [N1 18-nt cohesive-end cassette (paired N.BstNBI sites)] |  | activity on this sequence (site within plasmids pAZY2, pECF11, pECH1, fragments released after nicking and heating to 65-75 C): active
